Assay results from article doi:10.1101/575910 (bioRxiv, 2019).
No constants are given. Whether binding was seen depends on the method and setting. Some binding calls cover weakened binding; strength is not graded here.

The chains behind the UniProt entries cited, without tags or fusion partners. Where a name states a change or a piece, a line headed by the entry shows the natural chain unless it says otherwise. A line that says so, or that is headed by a name, gives the form on record, which may keep a tag or linker. Residues count along the entry.
UniProt Q802Y8, residues 8-401: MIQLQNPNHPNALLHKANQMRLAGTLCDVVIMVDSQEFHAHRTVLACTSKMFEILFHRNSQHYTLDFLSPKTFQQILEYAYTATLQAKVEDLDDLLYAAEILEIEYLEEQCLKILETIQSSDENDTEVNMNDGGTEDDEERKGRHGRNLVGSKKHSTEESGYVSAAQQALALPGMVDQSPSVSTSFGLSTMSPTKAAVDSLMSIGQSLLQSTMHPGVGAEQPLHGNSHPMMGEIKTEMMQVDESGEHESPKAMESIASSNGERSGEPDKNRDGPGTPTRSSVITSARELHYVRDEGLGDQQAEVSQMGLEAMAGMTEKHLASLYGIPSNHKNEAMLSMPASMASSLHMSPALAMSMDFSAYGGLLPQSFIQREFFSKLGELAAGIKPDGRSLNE
N-terminal region of Cul3 (Cul3a residues 1-379) (F6NVK8, form named): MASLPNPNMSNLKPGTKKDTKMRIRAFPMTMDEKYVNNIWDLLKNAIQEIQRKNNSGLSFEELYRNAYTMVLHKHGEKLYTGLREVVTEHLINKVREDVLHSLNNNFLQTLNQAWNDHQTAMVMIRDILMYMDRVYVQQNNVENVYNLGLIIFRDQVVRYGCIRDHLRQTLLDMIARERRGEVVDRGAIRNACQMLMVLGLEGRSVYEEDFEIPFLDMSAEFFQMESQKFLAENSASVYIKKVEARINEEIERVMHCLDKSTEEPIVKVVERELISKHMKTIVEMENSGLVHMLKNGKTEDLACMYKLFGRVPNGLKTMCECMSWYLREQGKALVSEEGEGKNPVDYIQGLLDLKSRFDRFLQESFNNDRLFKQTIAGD

Biological target: Plzf ΔZF (Plzfa residues 8-401) (zebrafish) (UniProt Q802Y8)
Test: MST

## N-terminal region of Cul3 (Cul3a residues 1-379) (from UniProt F6NVK8 1-379) (domain or fragment)
  binding: binds
